According to PubChem BioAssay AID2685 (National Center for Advancing Translational Sciences (NCATS), 2010):
Out of some 320,000 compounds screened, about 2,100 (0.66%) were called active. Inconclusive means that the source gave no clear call. Such entries were picked first, then a sample of the others. Calls come from the whole dose curve; as a rule, active = well fitted inhibition curve with a large enough effect in the signal ratio, with a control signal flat (not every such curve was filed as active); inconclusive = small, poorly fitted or top-dose-only effect, or effect the other way, or a change in a side signal; inactive = flat fitted curve, though single readings scatter; the % refers to the signal ratio. A potency beside an inconclusive call is a rough fit, not a confirmed value.
% is set by controls: 0 for no effect and ±100 for the full control effect; potency is the fitted concentration of half-maximal effect.

Assay: qHTS Assay for Lipid Storage Modulators in Drosophila S3 Cells
Settings: BODIPY lipid droplet fluorescence, 18-24 h, cells fed with added oleic acid; lipid storage change, negative = inhibition: at 46.1 µM (top of the series) unless noted
Method in brief: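 Drosophila S3 cells got compounds at several concentrations plus oleic acid (400 uM solution). Laser-scanning cytometry with 488 nm excitation read lipid droplets at 500-530 nm and cells at 575-640 nm. Percent activity was relative to 20 uM Triacsin C.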
In the case of `Cc1cc(C(=O)CN2C(=O)NC(c3ccccc3)(c3ccccc3)C2=O)c(C)n1Cc1ccco1`, the lipid storage change, negative = inhibition is reported as inconclusive: -13.1%.
With `CNCc1cc(Cl)cc(OC)c1OC(C)C` the lipid storage change, negative = inhibition was inconclusive: -15.5%.
For `O=C(N/N=C/c1ccc(Cl)c([N+](=O)[O-])c1)c1cnccn1`, the Potency was inconclusive: 20.6 µM [falling, single point].
With `O=C(Nc1nccs1)C(c1ccccc1)N1CCCC1` (stereo not drawn) the lipid storage change, negative = inhibition was inconclusive: 9.5%.
With `CC(=O)Nc1ccc(NC(=O)N2CCCCC2)cc1` the lipid storage change, negative = inhibition was inconclusive: -54.6%.
With `Cc1ccc2[nH]c(=O)c(CN(Cc3cccs3)S(=O)(=O)c3ccc4c(c3)OCCO4)cc2c1` the lipid storage change, negative = inhibition was inconclusive: 4.02%.
In the case of `O=C1NCCN1Cc1cccc(Cl)c1`, the Potency is reported as inconclusive: 6.51 µM [activator, single point].
In the case of `CSc1ccccc1NC(=O)CN(C)C(=O)c1ccc2c(c1)OCCO2`, the lipid storage change, negative = inhibition is reported as inconclusive: -23.8%.
With `CC(=O)Nc1ccc(S(=O)(=O)N/N=C/c2ccc(C)s2)cc1` the Potency was inconclusive: 2.91 µM [rising, partial curve].
In the case of `NNC(=O)CNc1ccccc1Cl`, the Potency is reported as inconclusive: 1.03 µM [falling, full curve].
For `O=C(Nc1nnc(C(F)(F)F)s1)c1c(F)cccc1F`, the lipid storage change, negative = inhibition was inconclusive: 14.4%.
With `COc1ccc(CCNC(=O)CCCc2nnc3n(C)c(=O)c4sccc4n23)cc1OC` the Potency was inconclusive: 11.6 µM [activator, single point].
For `CC1CCCCN1S(=O)(=O)c1cnc(Cl)c(Br)c1` (stereo not drawn), the lipid storage change, negative = inhibition was inconclusive: -0.125%.
With `CC(C)(C)c1csc(NC(=O)Cc2ccc(S(=O)(=O)N3CCOCC3)s2)n1` the Potency was inconclusive: 20.6 µM [falling, single point].
In the case of `CC(C)c1[nH]nc2c1C(c1cccs1)C(C#N)=C(N)O2` (stereo not drawn), the Potency is reported as inconclusive: 20.6 µM [falling, single point].
With `Cc1ccc(-c2nc(N)sc2C)cc1` the lipid storage change, negative = inhibition was inconclusive: 12.5%.
For `O=C(N/N=C/c1ccc([N+](=O)[O-])s1)c1ccncc1`, the lipid storage change, negative = inhibition was inconclusive: -26.8%.
For `CCc1nc2ccccc2c2nc3ccccc3n12`, the Potency was inconclusive: 23.1 µM [rising, single point].
With `COc1ccc(OCC(=O)Nc2cc(OC)ccc2N2CCCCC2)cc1` the Potency was inconclusive: 6.51 µM [activator, single point].
For `C=CC[n+]1c(/C=C2\C=Cc3cc(C)ccc3N2CC)ccc2ccccc21`, the lipid storage change, negative = inhibition was inconclusive: -100%.
In the case of `O=C(COc1cc(O)c2c(=O)cc(-c3ccccc3)oc2c1)c1ccc(F)cc1`, the Potency is reported as inconclusive: 4.61 µM [falling, full curve].
In the case of `CC1(C)CC(=O)C2=C(C1)c1c(ccc3ccccc13)NC2c1ccco1` (stereo not drawn), the Potency is reported as inconclusive: 6.51 µM [activator, single point].
In the case of `Cc1ccc(CNS(=O)(=O)c2cc3c4c(c2)CCN4C(=O)CC3)cc1`, the lipid storage change, negative = inhibition is reported as “inconclusive”.
In the case of `O=C(CSc1cccc[n+]1[O-])Nc1cc(S(=O)(=O)N2CCOCC2)ccc1N1CCOCC1`, the lipid storage change, negative = inhibition is reported as inconclusive: 59.8%.
With `Cc1ccsc1C(=O)NCc1ccc(F)cc1` the Potency was inconclusive: 6.51 µM [falling, single point].
With `COc1ccccc1CNc1cc(C)ccn1` the lipid storage change, negative = inhibition was inconclusive: -11.9%.
In the case of `CC1CCc2c(sc3nn[nH]c(=O)c23)C1` (stereo not drawn), the lipid storage change, negative = inhibition is reported as inconclusive: -24%.
For `O=C(Nc1ccc(S(=O)(=O)N2CCCC2)cc1)c1cc(F)c(F)cc1Cl`, the Potency was inconclusive: 0.103 µM [falling, full curve].
In the case of `Cc1ccc(C)c(NC(=O)COC(=O)CNC(=O)C2CCCCC2)c1`, the Potency is reported as inconclusive: 1.3 µM [activator, full curve].
With `Cc1cccc(OCC(=O)N(Cc2ccco2)C2CCS(=O)(=O)C2)c1C` (stereo not drawn) the lipid storage change, negative = inhibition was inconclusive: 22.4%.
With `NC(=O)NC(=O)COC(=O)CC12CC3CC(CC(C3)C1)C2` the lipid storage change, negative = inhibition was inconclusive: -8.87%.
With `Nc1cc[n+](CC(=O)c2ccc3c(c2)OCCO3)cc1` the lipid storage change, negative = inhibition was inconclusive: 31%.
In the case of `O=C(NNC(=O)c1cccnc1SCc1cccc([N+](=O)[O-])c1)c1ccccn1`, the Potency is reported as inconclusive: 29.1 µM [falling, single point].
For `CCOc1ccc(C(O)Cn2c(=N)n(CCN3CCCCC3)c3ccccc32)cc1` (stereo not drawn), the Potency was inconclusive: 29.1 µM [cytotoxic, single point].
With `COc1ccc(OC)c(NC(=O)CCN2C(=O)c3cccc([N+](=O)[O-])c3C2=O)c1` the “outcome” value was “inactive [at 46.1 µM]”.
For `COc1ccc(-c2cc(C(=O)Nc3cc(C)n(Cc4ccc(Cl)cc4)n3)no2)cc1OC`, the lipid storage change, negative = inhibition was inconclusive: 30.6%.
In the case of `O=S(=O)(c1ccc2c(c1)OCCO2)N1CCC(n2nnc3cc(C(F)(F)F)ccc32)CC1`, the lipid storage change, negative = inhibition is reported as inconclusive: 43.1%.
For `O=C(COc1ncnc2ccccc12)NCC1CCCO1` (stereo not drawn), the Potency was inconclusive: 0.0046 µM [falling, full curve, poor fit].
